Out of some 400,000 compounds screened, about 3,700 (0.93%) were called active. The inconclusive results got no clear call from the source; some entries with a clear call stand among them for comparison. The call rests on the fitted dose curve; in most records, active means well fitted inhibition curve with a large enough effect; inconclusive means small, poorly fitted or top-dose-only effect, or another doubt; inactive means no such curve, though single readings can be large or run the other way. Potencies of inconclusive entries are doubtful fits and often do not repeat. Where a structure was tested more than once in an assay, its records may differ in their call.
biological target: Vitamin D3 receptor (Homo sapiens) (UniProt P11473); assay: Inhibitors of the vitamin D receptor (VDR): qHTS; conditions: VDR-SRC2-3 peptide fluorescence polarization, 2 h; max response, negative = inhibition: hits give low values
In short: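 After 23 nl compound addition and a short centrifugation, plates sat for 2 hours at ambient temperature; polarization of fluorescence then indicated loss of VDR binding to peptide SRC2-3.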
On the % scale 0 is the no-effect control and ±100 the full control effect; potency means the concentration at half of the fitted maximal effect.

Protein sequences, listed by entry. Tags and fused reporters are not part of them. Lines headed by an entry give the natural chain unless they say otherwise; changes in a name come on top.
UniProt P11473: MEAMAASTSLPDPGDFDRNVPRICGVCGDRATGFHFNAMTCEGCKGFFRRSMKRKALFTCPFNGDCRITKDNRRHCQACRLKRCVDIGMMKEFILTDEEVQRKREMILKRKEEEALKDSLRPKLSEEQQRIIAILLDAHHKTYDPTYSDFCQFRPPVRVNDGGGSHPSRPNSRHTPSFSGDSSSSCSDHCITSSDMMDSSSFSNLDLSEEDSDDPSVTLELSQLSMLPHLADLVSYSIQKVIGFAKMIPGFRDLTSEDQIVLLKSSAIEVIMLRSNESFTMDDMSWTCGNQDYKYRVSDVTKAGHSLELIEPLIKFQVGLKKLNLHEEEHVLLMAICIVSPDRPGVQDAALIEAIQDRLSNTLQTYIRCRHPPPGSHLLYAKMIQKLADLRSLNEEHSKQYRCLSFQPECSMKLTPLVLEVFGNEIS

| SMILES | Potency | max response, negative = inhibition |
| --- | --- | --- |
| COc1cccc(-c2nc(CS(=O)(=O)CC(=O)NCCc3ccc(OC)c(OC)c3)c(C)o2)c1 | inconclusive: 28.2 µM [inhibitor, partial curve, poor fit] | – |
| CC1Nc2ncnc(N3CCc4ccccc4C3)c2N(Cc2ccc(Cl)cc2)C1=O (configuration not stated) | inconclusive: 63.1 µM [inhibitor, partial curve, poor fit] | – |
| Cc1cc(-c2nn3c(-c4ccccc4)nnc3s2)c2ccccc2n1 | inconclusive: 79.4 µM [inhibitor, partial curve, poor fit] | – |
| CSc1ccc(C(=O)c2[nH]c(=O)[nH]c2C)cc1 | inconclusive: 56.2 µM [inhibitor, partial curve, poor fit] | – |
| Cc1ccc2c(c1)C(=O)C(=O)N2Cc1ccc(OC(C)C)cc1 | inconclusive: 25.1 µM [inhibitor, single point] | – |
| COC(C(=O)NNC(=O)Cc1ccc(Cl)cc1)c1ccccc1 (configuration not stated) | inconclusive: 70.8 µM [inhibitor, single point] | – |
| COc1ccc(/C=C2\SC(=S)N(CCC(=O)NCCCN3CCOCC3)C2=O)cc1 | inconclusive: 89.1 µM [inhibitor, single point] | – |
| CCOc1ccc(/C=C/C(=O)c2ccccc2)cc1 | inconclusive: 56.2 µM [inhibitor, partial curve, poor fit] | – |
| Cc1cc(C)nc(NC2=NCCN2C(=S)Nc2c(C)cccc2C)n1 | inconclusive: 14.1 µM [inhibitor, partial curve, poor fit] | – |
| COC(=O)[C@@H]1C[C@]2(OC(=O)c3ccccc3)C=CC(=O)C[C@@H]2N1C(=O)OCc1ccccc1 | inconclusive: 56.2 µM [inhibitor, partial curve, poor fit] | – |
| O=c1cc(-c2ccc(O)c(O)c2)oc2cc(O)c(C3OC(CO)C(O)C(O)C3O)c(O)c12 (configuration not stated) | – | inactive: -20% |
| C=C1C(=O)O[C@@H]2[C@H]3O[C@]3(C)CC/C=C(\C)CC[C@@H]12 | active: 22.4 µM | – |
| CN(C)c1ccc(CC(=O)c2nc3ccccc3s2)cc1 | – | inactive: -2.24% |
| CC1C(C#N)=C(SCC(N)=O)NC2=C1C(=O)CC(C)(C)C2 (configuration not stated) | inconclusive: 70.8 µM [inhibitor, partial curve, poor fit] | – |
| NC1=NC(=O)C2(COC(c3cccnc3)OC2)S1 (configuration not stated) | inconclusive: 79.4 µM [inhibitor, partial curve, poor fit] | – |
| COc1ccc2c(c1OC)C(=O)N1c3ccccc3N=C(c3ccc([N+](=O)[O-])cc3)CC21 (configuration not stated) | active: 89.1 µM | – |
| CC(C)(C)C(=O)Nc1nnc(SCC(=O)NC2CCCCC2)s1 | – | inactive: -13.6% |
| COc1ccc(-c2cn3nc(N4CCCC(C(=O)NCc5ccccc5C)C4)sc3n2)cc1 (configuration not stated) | – | inactive: 7.03% |
| COc1cc(C/C=C/c2ccccc2)c(OC)cc1O | active: 50.1 µM | – |
| COc1ccc(CN(CC2CCC(C(=O)O)CC2)C(=S)Nc2ccc(C)c(Cl)c2)cc1 (configuration not stated) | – | inactive: -3.89% |
| CC(=O)Oc1c(C)c(=O)n(C)c2ccccc12 | – | inactive: -12.1% |
| COc1ccc2[nH]c3c(c2c1)CCN1C(=O)C(CC(=O)NCCc2ccccn2)C[C@H](C(=O)N2CCOCC2)[C@@]31CCC1CCCC1 (some centres not stated) | inconclusive: 89.1 µM [inhibitor, single point] | – |
| Cc1cc(Cl)ccc1NC(=S)N(CCCN1CCOCC1)Cc1cccs1 | inconclusive: 89.1 µM [inhibitor, single point] | – |

| SMILES | Potency | max response, negative = inhibition |
| --- | --- | --- |
| S=C(Nc1cccnc1)Nc1cccc2cnccc12 | inconclusive: 79.4 µM [inhibitor, partial curve] | – |
| Cc1cccc(NC(=O)c2c(NC(=O)c3ccccc3)sc3c2CCCC3)c1 | active: 79.4 µM | – |
| N#CC1=C2SCN(c3ccc(F)cc3)CN2C(=O)CC1c1cccc(F)c1 (configuration not stated) | inconclusive: 79.4 µM [inhibitor, partial curve, poor fit] | – |
| Oc1ccccc1/C=N/Nc1nc2ccccc2o1 | – | inactive: -8.19% |
| N#CC1=C(N)OC2=C(C(=O)CC(c3ccccc3)C2)C1c1ccc2c(c1)OCO2 (configuration not stated) | inconclusive: 100 µM [inhibitor, single point] | – |
| Cc1ccc(OCc2nnc(SCC(=O)c3cccc([N+](=O)[O-])c3)n2C)cc1 | inconclusive: 79.4 µM [inhibitor, partial curve, poor fit] | – |
| S=C(Nc1ccccc1)Nc1nccs1 | inconclusive: 39.8 µM [inhibitor, partial curve, poor fit] | – |
| CC(C)NC(=S)N/N=C1\CCCCC1C1CCCCC1 (configuration not stated) | inconclusive: 89.1 µM [inhibitor, single point] | – |
| CCNS(=O)(=O)c1ccc(NC(=S)NCC2CCCO2)cc1 (configuration not stated) | inconclusive: 39.8 µM [inhibitor, full curve, poor fit] | – |
| CN1CSC2=C(C#N)C(c3cccc(OCc4ccccc4)c3)CC(=O)N2C1 (configuration not stated) | active: 44.7 µM | – |
| Cc1cccc(C)c1Nc1c(-c2cccs2)nc2ncccn12 | inconclusive: 11.2 µM [inhibitor, partial curve, poor fit] | – |
| COc1ccc(S(=O)(=O)NCC(c2ccc3c(c2)OCO3)N2CCOCC2)cc1 (configuration not stated) | – | inactive: 1.85% |
| Cc1cnc(CNc2ccnc(-c3ccccc3CN(C)C)n2)cn1 | inconclusive: 89.1 µM [inhibitor, partial curve, poor fit] | – |
| CN(C)S(=O)(=O)N1CCC(Oc2cccc(C(=O)NC3CCCCC3)c2)CC1 | inconclusive: 25.1 µM [inhibitor, single point] | – |
| CCCCCSc1nc(N2CCOCC2)c2c(c1C#N)CC(C)(C)OC2 | inconclusive: 10 µM [inhibitor, partial curve, poor fit] | – |
| O=C(NC1=NCCS1)c1cccc2ccccc12 | – | inactive: -1.98% |
| COc1cc(NS(=O)(=O)c2ccc(NC(=S)Nc3ccccc3)cc2)nc(OC)n1 | – | inactive: 9.54% |
| O=C(c1ccco1)N1CCN(C(=O)C2CCCN(S(=O)(=O)Cc3ccccc3)C2)CC1 (configuration not stated) | inconclusive: 39.8 µM [inhibitor, partial curve, poor fit] | – |
| O=C(c1ccc[nH]c1=S)N1CCN(S(=O)(=O)c2ccc(Br)cc2Cl)CC1 | inconclusive: 70.8 µM [inhibitor, single point] | – |
| CCOc1ccc(C(O)(c2ccccc2)C(CN2CCCC2)c2ccccc2)cc1 (configuration not stated) | inconclusive: 31.6 µM [inhibitor, single point] | – |
| CCN(CC)CC#CCC(O)(c1ccccc1)C1CCCCC1 (configuration not stated) | – | inactive: -15.4% |
| COc1ccc(CN2CCCC(C(=O)N3CCCCC3)C2)c(OC)c1 (configuration not stated) | inconclusive: 31.6 µM [inhibitor, partial curve, poor fit] | – |
| O=C(/C=C/c1ccccc1)c1ccc(NC2=NCCCS2)cc1 | inconclusive: 56.2 µM [inhibitor, partial curve, poor fit] | – |

Pulled by compound from above, six records:

| SMILES | Potency | max response, negative = inhibition |
| --- | --- | --- |
| N#CC1=C2SCN(c3ccc(F)cc3)CN2C(=O)CC1c1cccc(F)c1 (configuration not stated) | inconclusive: 79.4 µM [inhibitor, partial curve, poor fit] | – |
| COc1cc(C/C=C/c2ccccc2)c(OC)cc1O | active: 50.1 µM | – |
| CC1Nc2ncnc(N3CCc4ccccc4C3)c2N(Cc2ccc(Cl)cc2)C1=O (configuration not stated) | inconclusive: 63.1 µM [inhibitor, partial curve, poor fit] | – |
| CC(=O)Oc1c(C)c(=O)n(C)c2ccccc12 | – | inactive: -12.1% |
| CCN(CC)CC#CCC(O)(c1ccccc1)C1CCCCC1 (configuration not stated) | – | inactive: -15.4% |
| Oc1ccccc1/C=N/Nc1nc2ccccc2o1 | – | inactive: -8.19% |

(more compounds)

| SMILES | Potency | max response, negative = inhibition |
| --- | --- | --- |
| NC(=O)c1cc[n+](CC2=C(C(=O)[O-])N3C(=O)[C@@H](NC(=O)Cc4cccs4)[C@@H]3SC2)cc1 | active: 15.8 µM | – |
| COc1ccccc1NS(=O)(=O)c1cccc(C(=O)NCc2ccccn2)c1 | inconclusive: 79.4 µM [inhibitor, single point] | – |
| CCOc1ccccc1NC(=O)CSc1nc2c([nH]c3ccccc32)c(=O)n1-c1ccccc1 | – | inactive: 9.79% |
| CNC(=S)N/N=C/c1cn(Cc2c(F)cccc2Cl)c2ccccc12 | – | inactive: -14.2% |
| COc1cccc(C=C2SC(=S)NC2=O)c1 | – | inactive: -24.2% |
| CCOC(=O)c1ccc(N=c2ssnc2Cl)cc1 | active: 15.8 µM | – |
| C=C1C(=O)c2sccc2C(c2ccc(OC)c(OC)c2)C1COC(C)=O (configuration not stated) | inconclusive: 39.8 µM [inhibitor, partial curve, poor fit] | – |
| CCC(=O)OCCNc1cc(SCCC(=O)OC)c2nonc2c1[N+](=O)[O-] | inconclusive: 63.1 µM [inhibitor, partial curve, poor fit] | – |
| CN(C)C(=O)c1ccc(-c2nc(NCc3cccs3)c3ccccc3n2)cc1 | – | inactive: -11.8% |
| O=C(/C=C/c1cccc([N+](=O)[O-])c1)NC(=S)Nc1cccc(NC(=O)c2ccccc2Cl)c1 | – | inactive: -19.6% |
| Cc1c2cnn(CC(=O)N3CCOCC3)c(=O)c2c(C)n1Cc1ccccc1F | inconclusive: 50.1 µM [inhibitor, partial curve, poor fit] | – |
| COCCNC(=S)N/N=C1\CC(C)CC(C)(C)C1 (configuration not stated) | inconclusive: 89.1 µM [inhibitor, single point] | – |
| C=CCn1c(SCc2nc3c(c(=O)[nH]c(=O)n3CCCC)n2CCC)nnc1-c1ccccc1 | – | inactive: -10.4% |
| NNC(=O)c1cc2cc(Oc3ccccc3)ccc2[nH]1 | inconclusive: 70.8 µM [inhibitor, single point] | – |
| COc1ccc(CCN(Cc2cc3ccc(C)cc3n3nnnc23)C(C)=O)cc1OC | active: 39.8 µM | – |
| CCC1CCCCN1C(=O)CSc1nc(-c2ccc(OC)cc2)cc(C(F)(F)F)n1 (configuration not stated) | inconclusive: 70.8 µM [inhibitor, partial curve, poor fit] | – |
| CC(C)N1CCN(C(=O)c2ccc(NC(=O)c3ccc(Br)o3)cc2)CC1 | – | inactive: -12.7% |
| COc1ccccc1NC(=O)c1ccccc1NC(=O)c1cccs1 | – | inactive: 4.2% |
| C=CCn1c(O)c(C2=c3ccccc3=NC2=O)c2ccccc21 | active: 20 µM | – |
| O=C(c1ccc2c3c(cccc13)CC2)C1CCCN(C(=O)c2ccc(=O)[nH]c2)C1 (configuration not stated) | inconclusive: 79.4 µM [inhibitor, single point] | – |
| O=C(O)c1cccc(CSc2nc(-c3ccc(Cl)cc3)cc(C(F)(F)F)n2)c1 | inconclusive: 50.1 µM [inhibitor, partial curve, poor fit] | – |

From PubChem BioAssay AID504847 (National Center for Advancing Translational Sciences (NCATS), 2011)
